Experiment [1] deals with T1, Drosha (endogenous, immunoprecipitated from SEMK2 or PER377 nuclear extracts) (human) (UniProt Q9NRR4).
T1 sequence (looked up): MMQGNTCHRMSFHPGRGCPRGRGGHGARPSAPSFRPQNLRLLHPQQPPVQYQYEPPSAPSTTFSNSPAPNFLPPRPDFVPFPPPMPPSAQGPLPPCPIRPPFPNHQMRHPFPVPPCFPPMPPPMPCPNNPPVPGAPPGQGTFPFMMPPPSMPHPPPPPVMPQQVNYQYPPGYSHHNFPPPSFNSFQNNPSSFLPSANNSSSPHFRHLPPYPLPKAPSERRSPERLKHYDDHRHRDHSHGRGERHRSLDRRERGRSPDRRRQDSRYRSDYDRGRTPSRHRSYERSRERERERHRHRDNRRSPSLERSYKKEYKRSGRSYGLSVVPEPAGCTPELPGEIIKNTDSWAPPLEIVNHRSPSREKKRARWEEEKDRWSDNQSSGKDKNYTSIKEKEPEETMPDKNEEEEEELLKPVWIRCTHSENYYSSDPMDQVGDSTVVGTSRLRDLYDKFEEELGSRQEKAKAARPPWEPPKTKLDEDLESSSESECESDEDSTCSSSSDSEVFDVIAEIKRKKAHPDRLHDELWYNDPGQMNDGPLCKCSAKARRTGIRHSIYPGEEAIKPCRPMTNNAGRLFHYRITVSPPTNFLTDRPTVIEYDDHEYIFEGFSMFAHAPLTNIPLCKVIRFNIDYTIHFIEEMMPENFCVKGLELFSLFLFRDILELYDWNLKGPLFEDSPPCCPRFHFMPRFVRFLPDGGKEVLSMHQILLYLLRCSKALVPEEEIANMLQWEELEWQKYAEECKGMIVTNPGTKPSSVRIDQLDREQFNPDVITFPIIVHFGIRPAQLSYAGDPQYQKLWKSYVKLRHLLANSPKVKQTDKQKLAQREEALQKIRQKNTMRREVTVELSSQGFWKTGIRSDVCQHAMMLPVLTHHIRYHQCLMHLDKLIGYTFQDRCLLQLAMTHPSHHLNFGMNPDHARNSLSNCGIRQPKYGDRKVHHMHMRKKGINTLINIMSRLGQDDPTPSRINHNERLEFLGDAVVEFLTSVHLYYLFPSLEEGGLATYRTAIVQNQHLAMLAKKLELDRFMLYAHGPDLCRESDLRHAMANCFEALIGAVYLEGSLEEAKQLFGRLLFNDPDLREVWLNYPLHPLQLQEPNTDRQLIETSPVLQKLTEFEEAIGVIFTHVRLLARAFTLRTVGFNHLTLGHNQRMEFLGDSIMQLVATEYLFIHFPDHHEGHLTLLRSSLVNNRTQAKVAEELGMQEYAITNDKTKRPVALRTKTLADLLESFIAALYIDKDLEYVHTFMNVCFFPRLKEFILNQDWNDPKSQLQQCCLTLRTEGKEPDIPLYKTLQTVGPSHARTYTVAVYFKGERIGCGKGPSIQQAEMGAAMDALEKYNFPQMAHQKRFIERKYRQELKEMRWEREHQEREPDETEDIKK
The experiment is described as follows: co-IP with anti-Drosha Ab from PER377 nuclear extracts, Western blot. (A western blot detects proteins with antibodies after separation by electrophoresis.)

The target in experiment [2] is T1, Drosha (endogenous, immunoprecipitated from SEMK2 or PER377 nuclear extracts) (human). The experiment is described as follows: co-IP (restated in the discussion).

Our source for the binding values is patent US8053186.

These are yes or no findings as the source states them, for the method shown. Binding seen in cells or lysates may run through a third protein. A result given as binding can be weak or reduced; the word gives no strength.

For “All1/Af9 fusion protein (endogenous, PER377 cells with t(9;11)) (human)”, the binding result in experiment [1] and in experiment [2] was “binds” in each case.
